For the experiment, the target named is RomR^371-420 (C-terminal helix of RomR, residues 371-420) (M. xanthus) (UniProt Q1D3Z1). Nature of the experiment: condition: 50 μM of RomR^371-420 was titrated with 500 μM of MglB; ITC; 50 μM RomR^371-420 in the cell titrated with 500 μM MglB; 30 injections; both purified.

Amino acid sequences for entries named in this document (tags omitted). A change or cut given only in a name is not applied to a line headed by its entry.
UniProt Q1D3Z1: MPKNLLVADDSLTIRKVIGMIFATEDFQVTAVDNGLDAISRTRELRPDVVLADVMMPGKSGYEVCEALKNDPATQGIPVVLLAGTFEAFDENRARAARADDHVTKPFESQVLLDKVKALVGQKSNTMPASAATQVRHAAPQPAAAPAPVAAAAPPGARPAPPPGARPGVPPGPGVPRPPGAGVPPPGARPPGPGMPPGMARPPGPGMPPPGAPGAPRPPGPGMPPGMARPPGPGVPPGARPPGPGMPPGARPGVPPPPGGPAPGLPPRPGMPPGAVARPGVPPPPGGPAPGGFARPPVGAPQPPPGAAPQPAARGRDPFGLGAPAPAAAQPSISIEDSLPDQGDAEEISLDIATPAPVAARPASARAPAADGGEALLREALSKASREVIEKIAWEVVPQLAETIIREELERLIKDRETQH

From PMC12719032, “Structural and biophysical insights into RomR, MglB, and MglC interactions involved in regulating cell polarity in Myxococcus xanthus” (The Journal of Biological Chemistry, 2025) come the findings set out here.

These are yes or no findings as the source states them, for the method shown.

B1: MglB (mutual gliding-motility protein B) (protein, UniProt Q1DB03 1-159)
chain: MGTQLVMYEEEFTKINAVCDRLTKDANAKVVFLVDKNGQLISSAGQTQNIDTTSLASLTAGNVAAMGGLAKLIGENEFPNQFHEGAKDSLYMTIVGSRVVLVVIFDNRTSLGLVRLRIKKASDELTKIFESLVKKTDSPGAGSPFAEISDDDIDNLFSE
Regarding B1, the binding result is recorded as “no binding”.
